Measured values reported in patent US20250163002A1, “FUSED QUINONOXIME IMIDAZOLE, ONIUM DERIVATIVES THEREOF, PREPARATION AND USE THEREOF” (SHANGHAI JIAO TONG UNIVERSITY, priority 2022, published 2025).
Some of these results come from one statement about several compounds together. At least one structure is not confirmed: it was looked up by name or label, or the drawing left a doubt.

tested on: CFPAC-1 pancreatic cancer cells; assay: In vivo inhibition test of cancer cell proliferation, CFPAC-1 transplant; parameters: species or system Balb/c naked mouse; conditions: 7 mg/kg, once every other three days, 7 times; gross tumor volume
Experimental: Test method: 3×10^7 CFPAC-1 pancreatic cancer cells were transplanted to subcutaneous tissues of armpit of a Balb/c naked mouse; administration was conducted when the tumor grew to 50-100 mm^3, 100-200 mm^3, and greater than 200 mm^3; the mouse was administered once every other three days, 7 times in total, and 7 mg/kg each time. Normal saline was injected in the control group. Tumor length and diameter were measured by calipers and weight of the moue was weighed until the next day of the final administration. Gross tumor volume was calculated by the following equation:
gross tumor volume (mm^3)=½×[short diameter (mm)]^2×long diameter (mm)

| SMILES | proliferation inhibition activity / inhibition ratio [%] |
| --- | --- |
| CCCCn1c[n+](C)c2c1C(=O)c1ccccc1C2=NOCc1ccccc1.[I-] [Compound 121, (E) and (Z)-4-((benzyloxy)imino)-1-butyl-3-methyl-9-oxo-4,9-dihydro-1H-naphthol[2,3-d]imidazole-3-iodide] | > 80 |
| C=CCON=C1c2ccccc2C(=O)c2c1[n+](C)cn2C.[I-] [Compound 132, (E) and (Z)-4-((allyloxy)imino)-1,3-dimethyl-9-oxo-4,9-dihydro-1H-naphthol[2,3-d]imidazole-3-iodide] | > 80 |
| Cn1c[n+](C)c2c1C(=O)c1ccccc1C2=NOCc1c(F)c(F)c(F)c(F)c1F.[I-] [Compound 137, (E) and (Z)-1,3-dimethyl-9-oxo-4-(((perfluorophenyl)methoxy)imino)-4,9-dihydro-1H-naphthol[2,3-d]imidazole-3-iodide] | > 80 |
| Cn1c[n+](C)c2c1C(=O)c1ccccc1/C2=N\OCC1OCCO1.[I-] [Compound 143, (E)-4-(((1,3-dioxoheterocycle-2-yl)methoxy)imino)-1,3-dimethyl-9-oxo-4,9-dihydro-1H-naphthol[2,3-d]imidazole-3-iodide] | > 80 |
| COCCO/N=C1\c2ccccc2C(=O)c2c1[n+](C)cn2C.[I-] [Compound 144, (E)-4-((2-methoxyethoxy)imino)-1,3-dimethyl-9-oxo-4,9-dihydro-1H-naphthol[2,3-d]imidazole-3-iodide] | > 80 |
